The test system of series [1] is mice. Conditions: intraperitoneal; cited from earlier work.
Series [2] deals with mice. It counts as in vivo. The following applies: ED50 of the writhing test (Table 3) relative to LD50 i.p. As to the method: The experiments were carried out on male albino Swiss mice (body weight 18–26 g). All of the animals were housed at constant humidity (60%) and temperature (25 °C) and kept on a 12 h light/dark cycle. Animals were fed a standard pellet diet with free access to tap water. All procedures were conducted according to Animal Care and Use Committee guidelines, and approved by the Ethical Committee of Jagiellonian University, Kraków.
Control and experimental groups consisted of 6–8 animals each. The investigated compounds were administered intraperitoneally as a suspension in 0.5% methylcellulose in a constant volume of 10 mL/kg.
(An intraperitoneal irritant provokes the stretching counted in writhing tests.)

Usually LD50 stands for the dose expected to kill half of the subjects tested. On to `CN1CC[C@]23c4c5ccc(O)c4O[C@H]2[C@@H](O)C=C[C@H]3[C@H]1C5` [Morphine, reference compound], for which the median lethal dose (LD50) with mice [1] was 140.0 mg/kg. The “analgesic ED50 as fraction of LD50” value with mice [2] was 1/57.

(Values after paper PMC7764601 (Molecules, 2020).)
